Laboratory results: article PMC4525203

Tests used:
[1] = molecular target: T1, Cdx2 (mouse) (UniProt P43241); assay: co-IP + affinity purification with mass spectrometry; Cdx2 co-immunoprecipitation from TS cells followed by either western blot or mass spectrometry
T1 sequence: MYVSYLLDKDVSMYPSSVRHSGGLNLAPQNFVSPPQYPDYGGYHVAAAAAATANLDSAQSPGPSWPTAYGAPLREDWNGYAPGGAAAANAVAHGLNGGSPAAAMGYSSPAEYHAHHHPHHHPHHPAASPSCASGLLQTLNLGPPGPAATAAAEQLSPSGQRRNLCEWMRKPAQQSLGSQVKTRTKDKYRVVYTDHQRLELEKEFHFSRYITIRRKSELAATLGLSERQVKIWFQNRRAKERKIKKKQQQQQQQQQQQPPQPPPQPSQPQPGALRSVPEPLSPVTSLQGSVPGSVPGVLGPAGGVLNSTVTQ

[2] = molecular target: T2, C-terminally 3xFlag-tagged Esrrb (oestrogen-related receptor beta) (mouse) (UniProt Q61539); assay: affinity purification with mass spectrometry; anti-FLAG M2 agarose IP of Esrrb-3xFlag from TS cell nuclear extract dialysed to buffer D (20 mM Hepes pH 7.6, 20% glycerol, 100 mM KCl, 1.5 mM MgCl2, 0.2 mM EDTA), 3 h at 4 °C with Benzonase, elution with FLAG-tripeptide, LC-MS/MS; two biological replicates against vector control
T2 sequence: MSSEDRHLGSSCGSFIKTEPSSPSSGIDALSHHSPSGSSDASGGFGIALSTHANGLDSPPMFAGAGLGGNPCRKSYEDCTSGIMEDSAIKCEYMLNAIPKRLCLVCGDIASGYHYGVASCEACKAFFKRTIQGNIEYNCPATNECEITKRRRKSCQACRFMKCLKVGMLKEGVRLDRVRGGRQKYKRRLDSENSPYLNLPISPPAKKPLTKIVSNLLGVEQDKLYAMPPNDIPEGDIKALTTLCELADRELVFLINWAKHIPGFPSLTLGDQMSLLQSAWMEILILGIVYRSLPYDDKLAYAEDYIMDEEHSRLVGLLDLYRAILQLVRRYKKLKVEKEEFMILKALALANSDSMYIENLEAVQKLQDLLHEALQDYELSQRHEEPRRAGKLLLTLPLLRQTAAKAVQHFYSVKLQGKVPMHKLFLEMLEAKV

Row | Binder | binding [1] | binding [2]
1 | Alpha-globin transcription factor CP2 (protein, UniProt Q9ERA0 1-502) MAWALKLPLADEVIESGLVQDFDASLSGIGQELGAGAYSMSDVLALPIFKQEESSLPPDNENEILPFQYVLCAATSPAVKLHDETLTYLNQGQSYEIRMLDNRKLGELPELNGKLVKSIFRVVFHDRRLQYTEHQQLEGWRWNRPGDRILDIDIPMSVGVIDPRANPTQLNTVEFLWDPSKRTSVFIQVHCISTEFTMRKHGGEKGVPFRVQIDTFKENGNGEYTEHLHSASCQIKVFKPKGADRKQKIDREKMEKRTPHEKEKYQPSYETTILTECSPWPEITYVNNSPSPGFNSSHSSFSLGEGNGSPNHQPEPPPPVTDNLLPTTTPQEAQQWLHRNRFSTFTRLFTNFSGADLLKLTRDDVIQICGPADGIRLFNALKGRMVRPRLTIYVCQESLQLREQQPQPQPQPQKQEDGDSNGTFFVYHAIYLEELTAVELTEKIAQLFSISPHQISQIYKQGPTGIHVVISDEMVQNFQEEACFILDTMEAETSDSYHVILK | binds | binds
2 | Eomes (protein, UniProt O54839 1-707) MQLGEQLLVSSVNLPGAHFYSLESARGGGGGGGGGGGGGGGSVSLLPGAAPSPQRLDLDKASKKFPGSLPCQAGSAEPAGAGAGAPAAMLSDADAGDTFGSTSAVAKPGPPDGRKGSPCAEEELPSAATAAATARYSMDSLSSERYYLPSPGPQGSELAAPCSLFQYPAAAGAAHGPVYPASNGARYPYGSMLPPGGFPAAVCPPARAQFGPAAGSGSGAGSSGGGAGGPGAYPYGQGSPLYGPYAGTSAAGSCGGLGGLGVPGSGFRAHVYLCNRPLWLKFHRHQTEMIITKQGRRMFPFLSFNINGLNPTAHYNVFVEVVLADPNHWRFQGGKWVTCGKADNNMQGNKMYVHPESPNTGSHWMRQEISFGKLKLTNNKGANNNNTQMIVLQSLHKYQPRLHIVEVTEDGVEDLNEPSKTQTFTFSETQFIAVTAYQNTDITQLKIDHNPFAKGFRDNYDSMYTASENDRLTPSPTDSPRSHQIVPGGRYGVQNFFPEPFVNTLPQARYYNGERTVPQTNGLLSPQQSEEVANPPQRWLVTPVQQPVTNKLDIGSYESEYTSSTLLPYGIKSLPLQTSHALGYYPDPTFPAMAGWGGRGAYQRKMAAGLPWTSRMSPPVFPEDQLAKEKVKEEISSSWIETPPSIKSLDSSDSGVYNSACKRKRLSPSTPSNGNSPPIKCEDINTEEYSKDTSKGMGAYYAFYTSP | binds | 

Results are given in words; binding and its absence hold for the method and conditions named. In cells and extracts the contact can be indirect. These calls come from enrichment with a bait or labelling near it, and not all partners need be listed. For part of these data: Sequences can lack the tags named with a protein.
